# Library screen at single concentrations

The chains behind the UniProt entries cited, without tags or fusion partners. Residues count along the entry.
UniProt Q4DA54, 1-478: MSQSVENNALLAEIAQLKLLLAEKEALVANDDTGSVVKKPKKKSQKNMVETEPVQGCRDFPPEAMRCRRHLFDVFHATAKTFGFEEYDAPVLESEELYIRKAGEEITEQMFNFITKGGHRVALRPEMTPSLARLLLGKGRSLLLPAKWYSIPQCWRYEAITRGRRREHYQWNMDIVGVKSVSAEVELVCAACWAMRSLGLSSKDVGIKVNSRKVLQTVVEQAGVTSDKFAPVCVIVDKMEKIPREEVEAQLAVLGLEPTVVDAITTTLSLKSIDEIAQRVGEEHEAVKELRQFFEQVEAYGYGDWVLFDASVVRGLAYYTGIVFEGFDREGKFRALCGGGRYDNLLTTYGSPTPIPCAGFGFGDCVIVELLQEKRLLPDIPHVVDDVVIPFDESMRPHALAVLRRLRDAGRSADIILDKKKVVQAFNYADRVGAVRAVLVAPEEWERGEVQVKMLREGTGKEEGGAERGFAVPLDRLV
UniProt A4I591, 1-473: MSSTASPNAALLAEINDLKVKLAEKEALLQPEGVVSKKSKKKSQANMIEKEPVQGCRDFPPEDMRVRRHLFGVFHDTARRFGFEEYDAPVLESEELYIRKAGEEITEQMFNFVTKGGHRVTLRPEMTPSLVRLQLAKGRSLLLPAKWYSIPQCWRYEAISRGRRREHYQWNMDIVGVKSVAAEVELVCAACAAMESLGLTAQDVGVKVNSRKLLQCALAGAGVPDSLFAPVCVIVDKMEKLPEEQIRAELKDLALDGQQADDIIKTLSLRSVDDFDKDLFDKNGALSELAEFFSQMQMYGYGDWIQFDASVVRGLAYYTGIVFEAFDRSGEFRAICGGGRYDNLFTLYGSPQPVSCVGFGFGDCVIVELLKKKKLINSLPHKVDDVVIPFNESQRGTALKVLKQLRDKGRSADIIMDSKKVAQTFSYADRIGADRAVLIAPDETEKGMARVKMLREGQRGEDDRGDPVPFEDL
UniProt P9WPC5, whole entry: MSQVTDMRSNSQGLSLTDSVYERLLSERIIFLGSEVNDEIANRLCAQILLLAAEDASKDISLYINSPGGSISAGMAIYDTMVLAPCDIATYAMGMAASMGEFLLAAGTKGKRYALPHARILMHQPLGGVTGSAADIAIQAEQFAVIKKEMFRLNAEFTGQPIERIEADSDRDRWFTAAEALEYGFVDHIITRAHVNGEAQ
UniProt P9WPC3, whole entry partner: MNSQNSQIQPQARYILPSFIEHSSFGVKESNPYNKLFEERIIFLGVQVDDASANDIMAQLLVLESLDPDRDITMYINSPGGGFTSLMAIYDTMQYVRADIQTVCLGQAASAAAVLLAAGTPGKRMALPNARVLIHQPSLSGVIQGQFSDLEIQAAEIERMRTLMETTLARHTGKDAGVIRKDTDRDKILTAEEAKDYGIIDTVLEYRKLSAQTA

Toxoplasma: 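Assay of Toxoplasma gondii numbers, read through their beta-galactosidase reporter with a colour substrate. Compounds at 10 µM. Higher reads as fewer parasites (inferred from which compounds were picked for retests). Size under these conditions: about 67,000 compounds, about 260 of them at 50% or above in at least one test.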
Leishmania in macrophages: 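Cell assay of Leishmania donovani living inside macrophages; the read-out is not stated. Tested at 30 µM. Higher reads as stronger inhibition (inferred: compounds with an IC50 in retests scored well above the rest). Size under these conditions: about 69,000 compounds, about 1,000 of them at 50% or above in at least one test.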
TcHisRS: 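Histidine-tRNA ligase, Trypanosoma cruzi CL Brener (UniProt Q4DA54). Enzyme assay of histidyl-tRNA synthetase; the read-out is not stated. Compounds at 30 µM. The record gives no direction; compounds that gave an IC50 in retests scored well above the rest, so higher reads as stronger inhibition. Of about 69,000 compounds tested this way, about 31 (0.045%) reached 50% or more in at least one test.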
LiHisRS: 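Histidine-tRNA ligase, Leishmania infantum (UniProt A4I591). Enzyme assay of histidyl-tRNA synthetase; the read-out is not stated. Tested at 30 µM. Higher reads as stronger inhibition (inferred: compounds with an IC50 in retests scored well above the rest). The assay is labelled LdHisRS but filed under L. infantum. Size under these conditions: about 69,000 compounds, about 410 of them at 50% or above in at least one test.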
ClpP1P2: 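ClpP1P2, Mycobacterium tuberculosis (UniProt P9WPC5 and UniProt P9WPC3). Protease assay of ClpP1P2, read by the AMC dye that it sets free. Concentration: 50 µM. Higher reads as stronger inhibition, judged from the few compounds that gave an IC50. Most other retested compounds had strongly negative values. Of about 69,000 compounds tested this way, about 10 (0.015%) reached 50% or more in at least one test.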
T. brucei: 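Whole-parasite assay of Trypanosoma brucei over 72 hours; the read-out is not stated. Tested at 30 µM. Higher reads as stronger inhibition (inferred: compounds with an IC50 in retests scored well above the rest). Values scatter widely below zero; nearly all retest evidence comes from the higher of the two concentrations used. Of about 64,000 compounds tested this way, about 940 (1.5%) reached 50% or more in at least one test.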

Results are given as percent effect.
The record does not define 0% and 100%; most values in the screen are far below 50% and negative numbers occur (in some assays of this library far below -100).
This is an unselected part of the compounds tested.

Result for CC(Cn1ccnc1)NCc1cc(Br)c2c(c1)OCO2 (stereo not drawn) was TcHisRS: -1.667%; LiHisRS: 13.51%; ClpP1P2: 15.01%. For Cn1cc(NC(=O)N2CCC(CN3CCCC3)CC2)ccc1=O the result was Toxoplasma: 1.128%; Leishmania in macrophages: 6.646%; TcHisRS: 3.053%; LiHisRS: 6.383%; ClpP1P2: -15.62%; T. brucei: -14.6%. Result for Cc1ccc(C(=O)NC(CN2CCCC2=O)c2ccccc2)cn1 (stereo not drawn) was Toxoplasma: 13.23%; Leishmania in macrophages: 6.804%; TcHisRS: 8.876%; LiHisRS: 10.71%; ClpP1P2: -11.7%; T. brucei: -3.846%. Cc1cc(CNCc2c(C)n(CC(C)C)c3ccccc23)[nH]n1 read Toxoplasma: 10.28%; Leishmania in macrophages: -0.2397%; TcHisRS: -6.736%; LiHisRS: 27.96%; ClpP1P2: -8.239%; T. brucei: -3.718%. Result for O=C(c1ccsc1)N1C[C@H](N2CCOCC2)[C@@H]2OCCC[C@@H]21 was TcHisRS: 0%; LiHisRS: 15.79%; ClpP1P2: -1.277%. Cc1ccccc1C(=O)N1C[C@@H]2COC[C@]2(COCc2cccnc2)C1 gave TcHisRS: 4.301%; LiHisRS: 4.425%; ClpP1P2: -0.5961%.

CCC(C)NC(=O)c1cccc(CNC(=O)CC(F)(F)F)c1 (stereo not drawn) read Toxoplasma: 1.606%; Leishmania in macrophages: 2.749%; TcHisRS: 7.447%; LiHisRS: 15.62%; ClpP1P2: 1.907%; T. brucei: -29.51%. CCNC(=O)[C@@H]1CCCN1[C@@H](C(=O)NC)C1CC1 gave TcHisRS: 3.96%; LiHisRS: 11.11%; ClpP1P2: 7.893%. Result for Cn1cc(CC2CCN(C(=O)NCc3csc(C4CC4)n3)C2)cn1 (stereo not drawn) was Toxoplasma: -2.695%; Leishmania in macrophages: -7.68%; TcHisRS: 4%; LiHisRS: 0%; ClpP1P2: -5.66%; T. brucei: -6.233%. With [H][C@]12CN(Cc3cc(C)no3)CCN1C[C@H](c1ccccc1)[C@H]2CO the screen gave Toxoplasma: -31.7%; Leishmania in macrophages: 11.25%; T. brucei: -20.97%. Result for COc1cccc(OC)c1CN1CC(O)CN(S(C)(=O)=O)CC1=O (stereo not drawn) was Toxoplasma: -9.7%; Leishmania in macrophages: -3.352%; TcHisRS: 6.742%; LiHisRS: 16.33%; ClpP1P2: 14.99%; T. brucei: -3.193%. With Cc1c(NCCO)cccc1OC1CCCC1 the screen gave Toxoplasma: 2.983%; Leishmania in macrophages: -6.189%; TcHisRS: 3.867%; LiHisRS: 3.109%; ClpP1P2: -1.428%; T. brucei: -6.416%.

Result for COC(=O)C(NC(=O)c1ccc(NC2CC2)nc1)c1ccccc1 (stereo not drawn) was Toxoplasma: 3.269%; Leishmania in macrophages: 20.04%; TcHisRS: 3.448%; LiHisRS: 6.25%; ClpP1P2: -0.2264%; T. brucei: -25.99%. For CCOCCOC(C)C(=O)Nc1ccc2c(ccn2CC)c1 (stereo not drawn) the result was Toxoplasma: -8.706%; Leishmania in macrophages: 12.65%; TcHisRS: 0%; LiHisRS: -68.49%; ClpP1P2: -5.612%; T. brucei: 8.425%. Cc1ncc(CN)c(-c2cn(C)c3ccccc23)n1 gave Toxoplasma: 4.117%; Leishmania in macrophages: -4.808%; TcHisRS: 10.34%; LiHisRS: 14.29%; ClpP1P2: -6.544%; T. brucei: -12.13%. Cn1cc(C2CCCN2C(=O)c2cnc(-c3ncccn3)s2)cn1 (stereo not drawn) read Toxoplasma: 5.717%; Leishmania in macrophages: -25.57%; TcHisRS: 7.071%; LiHisRS: 9.574%; ClpP1P2: -12.24%; T. brucei: -43.46%. With COc1ncccc1CNC(=O)NCCNS(C)(=O)=O the screen gave Toxoplasma: 1.186%; Leishmania in macrophages: 32.3%; TcHisRS: 7.91%; LiHisRS: 17.24%; ClpP1P2: -18.15%; T. brucei: 4.734%. For CCN(C(=O)CN1CCC(c2ccccc2)C1)C1CC1 (stereo not drawn) the result was Toxoplasma: -0.5299%; Leishmania in macrophages: 22.53%; TcHisRS: 10.53%; LiHisRS: 19.18%; ClpP1P2: -6.479%; T. brucei: 4.916%.

For Cc1cnc(N2C(=O)CSC2c2ccc(F)cc2)s1 (stereo not drawn) the result was Toxoplasma: 23.81%; Leishmania in macrophages: 23.47%; TcHisRS: 11.34%; LiHisRS: 14.94%; ClpP1P2: 18.5%; T. brucei: -19.11%. Result for CCn1c(Cn2cncn2)nnc1C1CCN(Cc2ccc(C)o2)CC1 was Toxoplasma: -6.189%; Leishmania in macrophages: 48.04%; TcHisRS: -0.8264%; LiHisRS: 17.14%; ClpP1P2: 1.932%; T. brucei: 38.98%. Result for CC(O)c1cccc(Nc2nc(NCCO)c3ccccc3n2)c1 (stereo not drawn) was Toxoplasma: 12.45%; Leishmania in macrophages: 37.25%; TcHisRS: -2.232%; LiHisRS: 16.05%; ClpP1P2: 8.523%; T. brucei: 5.503%. Result for Cc1cnn(C(C)C2CC2)c1NC(=O)c1ccco1 (stereo not drawn) was Toxoplasma: 0.9745%; Leishmania in macrophages: -2.157%; TcHisRS: -2.041%; LiHisRS: -5.556%; ClpP1P2: -1.994%; T. brucei: -19.43%. CC(=O)N1CCC(NC(=O)c2ccc3c(c2O)OC(C)(C)C3)CC1 read Toxoplasma: 1.666%; Leishmania in macrophages: 19.74%; TcHisRS: 11.06%; LiHisRS: 21.95%; ClpP1P2: -4.601%; T. brucei: -13.06%. Result for Cc1ccc(CS(=O)(=O)N2CC[C@H]3[C@H]2CC(=O)N3C)cc1 was TcHisRS: 3.509%; LiHisRS: 16.13%; ClpP1P2: -11.89%.

For reference, 3 entries once more:

{"smiles": "Cc1cnc(N2C(=O)CSC2c2ccc(F)cc2)s1", "stereo": "stereo not drawn", "Toxoplasma": 23.81, "Leishmania in macrophages": 23.47, "TcHisRS": 11.34, "LiHisRS": 14.94, "ClpP1P2": 18.5, "T. brucei": -19.11}
{"smiles": "Cc1ncc(CN)c(-c2cn(C)c3ccccc23)n1", "Toxoplasma": 4.117, "Leishmania in macrophages": -4.808, "TcHisRS": 10.34, "LiHisRS": 14.29, "ClpP1P2": -6.544, "T. brucei": -12.13}
{"smiles": "CC(=O)N1CCC(NC(=O)c2ccc3c(c2O)OC(C)(C)C3)CC1", "Toxoplasma": 1.666, "Leishmania in macrophages": 19.74, "TcHisRS": 11.06, "LiHisRS": 21.95, "ClpP1P2": -4.601, "T. brucei": -13.06}

Data taken from ChEMBL document CHEMBL3988442, “University of Dundee, Small-Polar-MMV Screening Library” (2021).